Experimental data published in the supplement of paper PMC11006884.
This list holds what a sample rich in targets with a hit left over. The data scatter; read single values as rough. The entries are a selection whose mix differs from that of the whole data set.

The targets below were run with COC(=O)/C=C/c1ccccc1 [methyl cinnamate] (assay: log2 ratio of iodoacetamide-alkyne labeling of the cysteine site, DMSO over compound (competition); higher = stronger covalent engagement of the cysteine by the compound, active = 1 or more). Settings: 500 µM; treatment time 1 h; system: HEK293T cell lysate.
Procedure, shortened: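 HEK293T lysate (2 mg/mL) was treated with DMSO or electrophile (500 µM, 1 h, ambient temperature), then iodoacetamide alkyne (1 h), clicked to sCIP-TMT reagents, pooled, trypsin-digested overnight at 37 °C, streptavidin-enriched and acid-eluted. Peptides were run on Orbitrap Eclipse LC-MS/MS with FAIMS and quantified in FragPipe. The log2 competition ratio per cysteine is mean control-channel over mean compound-channel reporter intensity. Duplicate channels and three replicates were used, and cysteines quantified in only one replicate were excluded.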

log2 ratio of iodoacetamide-alkyne labeling, inactive:
FLNA C2293 (UniProt P21333) 0.27
ECHS1 C213 (UniProt P30084) -0.208
CAST C381 (UniProt P20810) 0.449
UniProt P19784_C336 0.294
YWHAQ C134 (UniProt P27348) 0.126
ACAT1 C142 (UniProt P24752) -0.249
UniProt P25098_C340 0.0566
DNAJB1 C267 (UniProt P25685) 0.0806
UniProt P22413_C807 -0.14
CAST C328 (UniProt P20810) 0.3
CSRP1 C58 (UniProt P21291) 0.0778
MAP4 C535 (UniProt P27816) -0.243
PTBP1 C250 (UniProt P26599) 0.025
CAD C736 (UniProt P27708) 0.0438
HNRNPA2B1 C50 (UniProt P22626) 0.169
UniProt P28482_C65 -0.0494
UniProt P28290_C599 0.78
PSMC3 C240 (UniProt P17980) 0.332
FLNA C649 (UniProt P21333) -0.307
RPL12 C162 (UniProt P30050) 0.0379
DNAJB1 C179 (UniProt P25685) 0.132
UniProt P25705_C294 -0.0108
PSMA1 C182 (UniProt P25786) 0.0663
POLD1 C1061 (UniProt P28340) 0.175
FLNA C1157 (UniProt P21333) 0.369
WARS C274 (UniProt P23381) 0.289
AHCY C195 (UniProt P23526) 0.196
DNMT1 C1226 (UniProt P26358) -0.00214
PRDX6 C91 (UniProt P30041) 0.18
CAST C408 (UniProt P20810) 0.299
ANXA7 C363 (UniProt P20073) 0.0358
DNMT1 C1478 (UniProt P26358) 0.242
APEX1 C65 (UniProt P27695) 0.236
RRM1 C492 (UniProt P23921) 0.285
OSBP C224 (UniProt P22059) 0.012
NF1 C1486 (UniProt P21359) 0.125
APC C1502 (UniProt P25054) 0.312
LAP3 C445 (UniProt P28838) 0.0705

A stretch of the results above, as a working copy:
log2 ratio of iodoacetamide-alkyne labeling, inactive:
CAST C328 (UniProt P20810) 0.3
CSRP1 C58 (UniProt P21291) 0.0778
